Values from PubChem BioAssay AID720505 (Drosophila RNAi Screening Center, 2013)
Purpose: 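Genes needed for store-operated calcium entry in fly cells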 (primary screen). Cells: Drosophila S2R+ cells. Reagents: long dsRNA against Drosophila genes. Challenge: thapsigargin (2 µM) in calcium-free buffer to empty internal stores, then 2 mM calcium added back. Detection: 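Stores emptied by 2 µM thapsigargin without calcium, then 2 mM calcium re-added; fluo-4 fluorescence followed by FLIPR in 384-well plates, per-well averaged endpoint, raw; two screen passes, some wells retested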. Direction: calcium signal and retest calcium signal: higher = more calcium entry after store depletion. Hit rule: 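Knock-downs counted as hits when calcium entry dropped relative to STIM1 positive and Rho1 negative controls present on each plate; roughly 1500 genes called, with reductions of differing size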. Calls: active = called as lowering calcium entry; inactive = not called.
The deposit covers about 20,000 reagents; this is a random part of those with a known target gene and a result. Over the whole deposit, about 2,100 (10%) got an active call. 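Raw plate signals without normalisation; calls rest on control-based scores that were not deposited; replicate 2 separates called from uncalled poorly.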 Names joined by + are all predicted targets of the reagent. No sequences are given here. The record does not give: the amount of reagent, the time to read-out.

no.	gene	amplicon	calcium signal, replicate 1	calcium signal, replicate 2	retest calcium signal, replicate 1	retest calcium signal, replicate 2	Call
1	CG11581	DRSC19407	118	122			inactive
2	CG34227	DRSC06788	83.2	122			inactive
3	CG34227	DRSC07034	97.5	112			inactive
4	CG46298	DRSC06222	151	184			inactive
5	CG9813	DRSC16569	113	112			inactive
6	CG13871	DRSC06430	192	162			inactive
7	Osi14	DRSC12368	120	82			inactive
8	CG8997	DRSC01900	74.1	104			active
9	HPS4	DRSC06906	141	138			inactive
10	Vha36-3	DRSC18615	69	130			inactive
11	Sox21b	DRSC10025	63.3	104	163	141	active
12	Sox21b	DRSC10634	97.6	152			inactive
13	Sox21b	DRSC22788	118	189			inactive
14	Sox21b	DRSC23005	174	142			inactive
15	CCT1	DRSC16877	124	202			inactive
16	MsR1	DRSC08615	87.3	43.5			inactive
17	CG32643	DRSC18962					active
18	CG32206	DRSC09602	8417	167			inactive
19	CG32206	DRSC10094	81.8	134			inactive
20	CG32206	DRSC10095	91.7	147			inactive
21	CG32206	DRSC10096	103	101			inactive
22	CG32206	DRSC11080	117	78.1			active
23	CG9631	DRSC14137	151	149			inactive
24	Tmep	DRSC08215	108	103			inactive
25	Nipsnap	DRSC20169	133	135			inactive
26	mod(mdg4)	DRSC15042	116	90.3			inactive
27	mod(mdg4)	DRSC17000	189	235			inactive
28	pea	DRSC07120	124	127			inactive
29	coil	DRSC07242	186	220			inactive
30	Nplp1	DRSC04370	99.9	90.2			inactive
31	SC35	DRSC02502	141	87.3			inactive
32	SC35	DRSC03425	136	155			inactive
33	CG17404	DRSC15234	118	114	103	93.2	inactive
34	CG31910 + snoRNA:Me28S-G2743 (retired record)	DRSC00946	75.6	174			inactive
35	Dop1R1	DRSC13020					inactive
36	Dop1R1	DRSC16652	94.3	111			inactive
37	Fad2	DRSC11165	62.5	109			inactive
38	htk	DRSC20029	76.2	77.8			active
39	htk	DRSC20031	166	138			inactive
40	CG34251	DRSC09500					active
41	glob3	DRSC12261	121	210			inactive
42	egl	DRSC04682	140	279			inactive
43	CG13042	DRSC09923	75.8	87.7			inactive
44	hbt	DRSC01310	285	123			inactive
45	hbt	DRSC02549	96	125			inactive
46	Pstk + Tim9b	DRSC19504	95.4	109			inactive
47	Pstk + Tim9b	DRSC20292	77.3	215			active
48	CG30373	DRSC05081	114	138			inactive
49	gsb-n	DRSC04021	115	112			inactive
50	gsb-n	DRSC04693	93.8	138			inactive
51	CG18081	DRSC10294	80.1	158			inactive
52	Sil1	DRSC14242	241	236			inactive
53	Spc25	DRSC14164	111	90.2			inactive
54	viaf	DRSC10326	156	97.5			inactive
55	RpS7	DRSC15394	62.6	61.3			active
56	mRpL19	DRSC16367	161	157	6193	116	inactive
57	mRpL19	DRSC21618	128	82.8			inactive

Copied from above (8 entries):
no.	gene	amplicon	calcium signal, replicate 1	calcium signal, replicate 2	retest calcium signal, replicate 1	retest calcium signal, replicate 2	Call
17	CG32643	DRSC18962					active
18	CG32206	DRSC09602	8417	167			inactive
19	CG32206	DRSC10094	81.8	134			inactive
20	CG32206	DRSC10095	91.7	147			inactive
21	CG32206	DRSC10096	103	101			inactive
22	CG32206	DRSC11080	117	78.1			active
23	CG9631	DRSC14137	151	149			inactive
24	Tmep	DRSC08215	108	103			inactive

Continued.
no.	gene	amplicon	calcium signal, replicate 1	calcium signal, replicate 2	retest calcium signal, replicate 1	retest calcium signal, replicate 2	Call
58	CG8289	DRSC20101	181	114			inactive
59	CG12620	DRSC02177	119	98.6			inactive
60	Taf4	DRSC11297	109	86.2			inactive
61	rin	DRSC17045	158	225			inactive
62	rin	DRSC22997	115	120			inactive
63	pxb	DRSC13110					active
64	pxb	DRSC14996	119	100	117	98.7	inactive
65	pxb	DRSC14997	147	102			inactive
66	pxb	DRSC22225	101	260			inactive
67	CG7953	DRSC01902	82.7	153			inactive
68	CG33523	DRSC09814	97.7	78.2			inactive
69	CG33523	DRSC22155	83.6	225			inactive
70	jb	DRSC20531	104	84.1			inactive
71	Femcoat	DRSC18061	142	112			inactive
72	asRNA:CR43470 + CG14830	DRSC10200	71.7	29.4			inactive
73	CG31259	DRSC14366	127	152			inactive
74	pwn	DRSC06035	123	138	112	108	inactive
75	CG9040	DRSC11053	89.9	121			inactive
76	CG3907	DRSC04432	104	161			inactive
77	CG32755	DRSC18397	205	93.7			inactive
78	Gnpnat	DRSC15405	143	144			inactive
79	Asx	DRSC05924	80.1	119			inactive
80	Sh3beta	DRSC11001	107	74.5			inactive
81	Sh3beta	DRSC22053	111	205			inactive
82	CG8611	DRSC19340	94.8	136			inactive
83	CG14607	DRSC12551	131	135			inactive
84	CG5071	DRSC15710	99.4	117			inactive
85	CG5071	DRSC22570	94.5	186			inactive
86	CR16735	DRSC15144	120	139			inactive
87	CG1077	DRSC12146	102	124	93.4	86.1	inactive
88	sif	DRSC11395	97.7	87.4			inactive
89	sif	DRSC22065	116	236			inactive
90	sif	DRSC22828	98.2	79.4			inactive
91	Mvk + CG33672 + spt4	DRSC05356	78.7	110			inactive
92	Mvk + CG33672 + spt4	DRSC06628	175	158			inactive
93	Naxd	DRSC09722	153	93.4			inactive
94	CG3638	DRSC18533	123	128			inactive
95	CG11164	DRSC19392	56.9	121			active
96	CG30271	DRSC04170	117	134			inactive
97	CG34161	DRSC01132	230	136			inactive
98	Rpn9	DRSC16840	216	309			inactive
99	NijA	DRSC10637	81	70			inactive
100	cold	DRSC00538	114	197			inactive
101	fal	DRSC11087	130	76.1			inactive
102	Nph	DRSC16342	176	119			inactive
103	CG42521	DRSC10154	104	80.4			inactive
104	CG13068	DRSC09951	69.2	140			inactive
105	Dpck	DRSC12575	116	165			inactive
106	CG44325	DRSC18039	271	74.3			inactive
107	CG44325	DRSC18423	57.1	293			active
